One substance from PMC9974451 can be followed below.

Results are given in words; binding and its absence hold for the method and conditions named. A result given as binding can be weak or reduced; the word gives no strength. Tags and fused reporters may be left off the sequences shown.

The target in assay [1] is T1, His-NOSIP-MBP (nitric oxide synthase interacting protein) (UniProt Q9Y314).
T1 sequence: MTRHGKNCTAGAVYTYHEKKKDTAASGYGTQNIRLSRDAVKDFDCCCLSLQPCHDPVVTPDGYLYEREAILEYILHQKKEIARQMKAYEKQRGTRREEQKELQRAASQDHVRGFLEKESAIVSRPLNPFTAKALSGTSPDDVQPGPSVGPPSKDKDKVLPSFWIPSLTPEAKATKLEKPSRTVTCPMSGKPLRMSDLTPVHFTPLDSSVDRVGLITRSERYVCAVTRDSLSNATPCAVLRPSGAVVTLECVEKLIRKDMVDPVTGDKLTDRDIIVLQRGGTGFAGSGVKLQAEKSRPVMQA
The assay can be described thus: pull-down; 100 pmol His-NOSIP-MBP (WT or K78A/K79A) or MBP immobilised on amylose beads, 100 pmol purified His-tagged NTR, with or without 300 pmol RanQ69L(1-180)-GTP, 3 h, 4 °C, TPB; SDS-PAGE, Coomassie; both purified.

For assay [2], the target named is T1, His-NOSIP-MBP (nitric oxide synthase interacting protein). Kind of assay: pull-down; competition among NTRs: 100 pmol His-NOSIP-MBP immobilised on amylose beads, 100 pmol of one NTR and increasing amounts of the other; Coomassie; both purified.

Regarding His-importin 7 (Xenopus laevis), the binding result in assay [1] and in assay [2] was “binds” each time.
